Assay results reported in paper PMC7819943, “Rice protein-binding microarrays: a tool to detect cis-acting elements near promoter regions in rice”.
This is one part of the list.

Molecular target: T1, OsSMF1 (Oryza sativa, UniProt Q6ZLB0 1-436)
T1 sequence: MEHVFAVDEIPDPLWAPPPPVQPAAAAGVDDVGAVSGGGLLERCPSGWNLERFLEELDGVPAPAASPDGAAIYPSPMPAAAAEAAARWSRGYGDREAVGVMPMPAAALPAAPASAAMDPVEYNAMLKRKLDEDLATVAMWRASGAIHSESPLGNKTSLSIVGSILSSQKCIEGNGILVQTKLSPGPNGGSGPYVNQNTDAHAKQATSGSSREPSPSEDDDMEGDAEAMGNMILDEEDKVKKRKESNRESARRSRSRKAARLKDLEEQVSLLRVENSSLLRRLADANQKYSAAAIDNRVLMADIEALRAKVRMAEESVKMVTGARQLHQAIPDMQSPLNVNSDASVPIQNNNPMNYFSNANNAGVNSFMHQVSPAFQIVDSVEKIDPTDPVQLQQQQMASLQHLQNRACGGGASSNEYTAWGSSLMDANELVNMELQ
Assay: protein-binding microarray (RPBM); PBS, 2% BSA, 51.3 ng/ul salmon testes DNA, 50 uM zinc acetate, 200 nM TF, 25 C, 1 h; high values mean tight binding
Settings: protein: recombinant; tags: N-terminal polyhistidine and DsRed monomer fusion (pET32a); chain copies: 2; label: CyDye5-dUTP incorporated in the synthesized complementary strand; 3' TTTTT single-stranded linker to array surface; dsDNA, one strand shown
Summary of the method: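 Using Ni–NTA, transcription factors fused N-terminally to polyhistidine and DsRed were purified after expression in E. coli BL21-CodonPlus. These were incubated at 200 nM with a blocked, double-stranded custom Agilent array for 1 h at 25 °C in a buffer containing 50 µM zinc acetate, and the array was washed. The binding signal is per-feature fluorescence intensity (arbitrary units) on an Axon 4000B scanner.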

Point of comparison: “ATGTGTTTGTCAACCGAGTAGAAACCGACACGTTTCGCGACGGAGTCACCTAGTGCAG”, binding signal 3890 fluorescence intensity (a.u.). Against it:
- TTGATGATGTGAAGTTTATGAAAACTGTGTCTAGTGTCATCGGAGTCACCTAGTGCAG — higher, 26900 fluorescence intensity (a.u.)
- CCTACACTGAAGTTAAGCAGATCTTCCAGGCCTCGTGTTTCGGAGTCACCTAGTGCAG — higher, 43800 fluorescence intensity (a.u.)
- AGCTGACCGCGCGACCGCCACTACCTCCTCGTCATTTCCCCGGAGTCACCTAGTGCAG — higher, 4800 fluorescence intensity (a.u.)
- ACTTACCACGGATTCCTCCACGACACTAATCCCAACCAGACGGAGTCACCTAGTGCAG — lower, 3220 fluorescence intensity (a.u.)
- TGCATTGCATTTGCACTGTCATTTCCTTCCTTTCAGTTTTCGGAGTCACCTAGTGCAG — higher, 36600 fluorescence intensity (a.u.)
- GGCCTCGGCTTCTCTTCTAAAACCCCACCTCGCCTCGCGTCGGAGTCACCTAGTGCAG — higher, 21000 fluorescence intensity (a.u.)
- CAGGAGGTGGAGAAGAAGACGTCGGCGTGGAGCGGCGGCGCGGAGTCACCTAGTGCAG — higher, 4640 fluorescence intensity (a.u.)
- AGAGTCGCCGCCACGATGACACACACGCCACGCGCCCCGACGGAGTCACCTAGTGCAG — higher, 4440 fluorescence intensity (a.u.)
- TCGTGTAGTTCTTTGCTCCATCAGAGGATATGTTCATATTCGGAGTCACCTAGTGCAG — lower, 3280 fluorescence intensity (a.u.)
- TTGATAAGCTATATAGTGGTCAGCGAGTCCTATTGCGTAGCGGAGTCACCTAGTGCAG — higher, 4010 fluorescence intensity (a.u.)
- AAAATAAAATAAAATACTTGTATCATGTCATGACAGCATTCGGAGTCACCTAGTGCAG — higher, 4190 fluorescence intensity (a.u.)
- AGCTTCATCTGCAATCCTCCGCTGATCTCTCCCTGTCCGGCGGAGTCACCTAGTGCAG — higher, 3940 fluorescence intensity (a.u.)
- AAATATAATATATGACTGGATGTGACACATCCTAGTACAACGGAGTCACCTAGTGCAG — higher, 5840 fluorescence intensity (a.u.)
- AGTTGCTTACTCACATAATTGTTTTAAATCAAGGTACTTCCGGAGTCACCTAGTGCAG — higher, 4720 fluorescence intensity (a.u.)
- ATATTATTGCCGATCTAGAAAATCGACATATCTCTTGTTACGGAGTCACCTAGTGCAG — lower, 3380 fluorescence intensity (a.u.)
- TATTGCAAAATTTAAAATTATGATGTTATTTTAATATATTCGGAGTCACCTAGTGCAG — lower, 3320 fluorescence intensity (a.u.)
- CGAGAGAACATTCCGTATCGCGCACTAGTAAAGAGTGGGTCGGAGTCACCTAGTGCAG — higher, 28100 fluorescence intensity (a.u.)
- TTCGGCTTGGTTAGTTCATGTCAGCAATTTGGGCCCAGAACGGAGTCACCTAGTGCAG — lower, 3180 fluorescence intensity (a.u.)
- TTTCTACTGCCACGTAGGTGCCAAGTCAATGCCACGTGTTCGGAGTCACCTAGTGCAG — higher, 31500 fluorescence intensity (a.u.)
- CGAGTCCCGCATGCGCCCCACGCGGCGGCTCCAGCACCCGCGGAGTCACCTAGTGCAG — lower, 3650 fluorescence intensity (a.u.)
- GTTATATAGGACTGTAAGTTTAGTAATTACACATGTAAGTCGGAGTCACCTAGTGCAG — higher, 24600 fluorescence intensity (a.u.)
- CAGCAAGCCGATAGCGCCACGCCACGCTAAGCTCGCCGCCCGGAGTCACCTAGTGCAG — higher, 5560 fluorescence intensity (a.u.)
